# Literature values as cited in patent US20230390267A1, “TREATMENT REGIMENS FOR EARLY IDIOPATHIC PARKINSON'S DISEASE” (BIAL - PORTELA & CA., S.A., priority 2020, published 2023).
# Tested on: PD patients with motor fluctuations
# Details: after 3 months of opicapone; cited from earlier work
smiles,measurement,value
"Cc1c(Cl)c(C)[n+]([O-])c(Cl)c1-c1noc(-c2cc(O)c(O)c([N+](=O)[O-])c2)n1 [opicapone, 2,5-dichloro-3-[5-(3,4-dihydroxy-5-nitrophenyl)-1,2,4-oxadiazol-3-yl]-4,6-dimethylpyridine 1-oxide]",patients with a decrease in levodopa dosing frequency,12.5%
same,patients with an increase in levodopa dosing frequency,10.4%
same,patients with no change in total daily levodopa dosing frequency,77.1%
